The values that follow come from article PMC5752836.

These are yes or no findings as the source states them, for the method shown. Binding seen in cells or lysates may run through a third protein.

The target of this assay is T1, proline-rich transmembrane protein 2 (PRRT2) (mouse (endogenous in mouse brain)) (UniProt E9PUL5).
T1 sequence: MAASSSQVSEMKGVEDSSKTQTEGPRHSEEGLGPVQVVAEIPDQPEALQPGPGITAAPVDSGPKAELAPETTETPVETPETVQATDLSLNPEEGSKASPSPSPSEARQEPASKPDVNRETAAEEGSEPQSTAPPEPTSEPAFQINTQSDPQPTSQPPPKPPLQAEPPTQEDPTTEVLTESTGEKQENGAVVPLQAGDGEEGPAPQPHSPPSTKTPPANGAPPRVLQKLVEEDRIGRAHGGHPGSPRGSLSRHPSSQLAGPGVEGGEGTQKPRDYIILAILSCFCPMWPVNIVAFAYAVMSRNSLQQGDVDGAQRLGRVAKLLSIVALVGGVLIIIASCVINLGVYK
Description: co-IP; mouse brain lysates in ELB buffer (100 mM Tris, 10 mM EDTA, 300 mM NaCl, 0.2% NP-40, pH 7.5), anti-PRRT2 antibodies overnight at 4 °C, Protein G-Agarose, immunoblotting; controls: Prrt2Stop lysate, WT lysate pre-incubated with the epitope peptide. In general terms: A western blot detects proteins with antibodies after separation by electrophoresis.

As for “SYS1 (mouse (endogenous in mouse brain))”, the binding result is “no binding”.
